# The other results are listed elsewhere or left out. For some of these results: Construct or isoform of the protein are uncertain.
# Tests used:
# Test in all cases: protein microarray (ProtoArray v5.0), streptavidin-Alexa Fluor 647
# Details in all cases: 3'-biotin; 20 mM Tris (pH 7.5), 5 mM MgCl2, 100 mM KCl, 0.1% Tween-20, A/T-rich and random oligonucleotide blockers; temperature not stated; high values mean tight binding
# CCDC23 = target: T1, CCDC23 (UniProt Q8N300)
# T1 sequence: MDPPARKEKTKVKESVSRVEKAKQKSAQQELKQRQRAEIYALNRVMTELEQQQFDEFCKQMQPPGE
# CCDC28A (human) = tested on: CCDC28A (human)
# CCDC32 (human) = tested on: CCDC32 (human)
# CCDC40 (human) = tested on: CCDC40 (human)
# CCDC5 (human) = tested on: CCDC5 (human)
# CCDC53 (human) = tested on: CCDC53 (human)
# CCDC75 (human) = tested on: CCDC75 (human)
# CCDC78 (human) = tested on: CCDC78 (human)
# CCDC83 (human) = tested on: CCDC83 (human)
# CCDC91 (human) = tested on: CCDC91 (human)
sequence,measurement,setting,value
GGGAGGCTGAGGCAGG [G4-1 biotinylated (PQS2)],binding signal,CCDC23,3.6 z-score
same,binding signal,CCDC28A (human),-0.318 z-score
same,binding signal,CCDC32 (human),-0.378 z-score
same,binding signal,CCDC40 (human),-0.353 z-score
same,binding signal,CCDC5 (human),-0.327 z-score
same,binding signal,CCDC53 (human),-0.324 z-score
same,binding signal,CCDC75 (human),-0.343 z-score
same,binding signal,CCDC78 (human),-0.246 z-score
same,binding signal,CCDC83 (human),-0.331 z-score
same,binding signal,CCDC91 (human),-0.317 z-score

# Another view of some results above.
sequence | measurement | setting | value
GGGAGGCTGAGGCAGG [G4-1 biotinylated (PQS2)] | binding signal | CCDC28A (human) | -0.318 z-score
same | binding signal | CCDC83 (human) | -0.331 z-score

# Source: PMC5996148
